Compound in the test: Nc1nc2c(ncn2[C@@H]2O[C@H](COP(=O)(O)OP(=O)(O)OP(=O)(O)O)[C@@H](O)[C@H]2O)c(=O)[nH]1 [guanosine triphosphate]
The experiment in a line: NP40-soluble protein abundance relative to vehicle (solubility fold change) (ratio); higher = more soluble protein in presence of GTP. The method, boiled down:
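Across three independent experiments, values are fold changes against the detergent-processed vehicle for each replicate, based on vsn-normalised intensities. The samples were Jurkat crude lysate treated with eight concentrations (0.1 to 10 mM) for 10 min at room temperature and then 3 min at 37 °C. Lysate was solubilised with 0.8% NP40 and benzonase, ultracentrifuged, and the supernatant analysed by TMT-labelled LC-MS/MS.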

Chains of the proteins cited; added tags and fusions are not shown. Lines headed by an entry give the natural chain unless they say otherwise; changes in a name come on top.
UniProt Q9UM00: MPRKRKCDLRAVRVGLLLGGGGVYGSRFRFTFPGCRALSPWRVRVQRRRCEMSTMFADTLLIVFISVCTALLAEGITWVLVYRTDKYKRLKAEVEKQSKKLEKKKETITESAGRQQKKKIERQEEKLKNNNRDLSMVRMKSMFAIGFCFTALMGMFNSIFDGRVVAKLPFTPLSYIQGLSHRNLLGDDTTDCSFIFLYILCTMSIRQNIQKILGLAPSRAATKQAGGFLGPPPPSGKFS
UniProt P51648: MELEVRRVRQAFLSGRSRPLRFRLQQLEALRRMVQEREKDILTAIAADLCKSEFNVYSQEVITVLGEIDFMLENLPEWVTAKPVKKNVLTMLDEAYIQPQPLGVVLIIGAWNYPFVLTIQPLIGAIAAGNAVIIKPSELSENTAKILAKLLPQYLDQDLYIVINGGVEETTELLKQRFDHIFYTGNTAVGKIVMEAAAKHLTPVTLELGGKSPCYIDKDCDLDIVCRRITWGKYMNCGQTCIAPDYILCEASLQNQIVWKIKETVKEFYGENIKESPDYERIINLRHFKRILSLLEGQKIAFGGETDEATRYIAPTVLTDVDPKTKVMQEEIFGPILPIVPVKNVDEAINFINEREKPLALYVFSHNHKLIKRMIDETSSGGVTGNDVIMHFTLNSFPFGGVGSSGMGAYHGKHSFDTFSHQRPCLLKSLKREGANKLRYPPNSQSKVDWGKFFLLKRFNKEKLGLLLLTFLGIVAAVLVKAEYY
UniProt P83876: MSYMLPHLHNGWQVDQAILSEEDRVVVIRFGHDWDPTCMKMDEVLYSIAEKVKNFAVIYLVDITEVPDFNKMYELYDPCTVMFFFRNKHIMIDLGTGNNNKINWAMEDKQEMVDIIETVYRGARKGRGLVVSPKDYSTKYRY
UniProt Q9UJV9: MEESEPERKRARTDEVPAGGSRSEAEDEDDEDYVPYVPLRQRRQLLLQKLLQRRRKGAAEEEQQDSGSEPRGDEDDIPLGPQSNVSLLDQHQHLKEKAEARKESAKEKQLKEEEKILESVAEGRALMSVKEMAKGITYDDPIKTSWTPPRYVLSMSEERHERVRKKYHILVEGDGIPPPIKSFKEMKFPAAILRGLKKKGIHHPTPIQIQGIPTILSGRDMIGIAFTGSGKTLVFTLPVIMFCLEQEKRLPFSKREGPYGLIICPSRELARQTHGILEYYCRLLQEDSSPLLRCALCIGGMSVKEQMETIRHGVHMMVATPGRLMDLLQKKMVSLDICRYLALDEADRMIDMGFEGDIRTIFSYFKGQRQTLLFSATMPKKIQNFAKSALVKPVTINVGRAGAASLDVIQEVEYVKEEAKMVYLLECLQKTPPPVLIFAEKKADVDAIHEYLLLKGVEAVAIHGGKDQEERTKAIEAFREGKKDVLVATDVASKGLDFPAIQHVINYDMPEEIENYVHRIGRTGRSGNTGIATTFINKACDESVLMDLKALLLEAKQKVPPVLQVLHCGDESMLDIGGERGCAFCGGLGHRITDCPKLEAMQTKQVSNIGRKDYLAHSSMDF
UniProt Q9Y3E5: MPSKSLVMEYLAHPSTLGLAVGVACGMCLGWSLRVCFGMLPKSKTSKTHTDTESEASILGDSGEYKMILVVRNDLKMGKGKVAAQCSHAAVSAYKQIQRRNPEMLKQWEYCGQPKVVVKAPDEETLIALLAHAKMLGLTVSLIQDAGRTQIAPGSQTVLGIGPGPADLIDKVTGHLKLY
UniProt Q7Z569: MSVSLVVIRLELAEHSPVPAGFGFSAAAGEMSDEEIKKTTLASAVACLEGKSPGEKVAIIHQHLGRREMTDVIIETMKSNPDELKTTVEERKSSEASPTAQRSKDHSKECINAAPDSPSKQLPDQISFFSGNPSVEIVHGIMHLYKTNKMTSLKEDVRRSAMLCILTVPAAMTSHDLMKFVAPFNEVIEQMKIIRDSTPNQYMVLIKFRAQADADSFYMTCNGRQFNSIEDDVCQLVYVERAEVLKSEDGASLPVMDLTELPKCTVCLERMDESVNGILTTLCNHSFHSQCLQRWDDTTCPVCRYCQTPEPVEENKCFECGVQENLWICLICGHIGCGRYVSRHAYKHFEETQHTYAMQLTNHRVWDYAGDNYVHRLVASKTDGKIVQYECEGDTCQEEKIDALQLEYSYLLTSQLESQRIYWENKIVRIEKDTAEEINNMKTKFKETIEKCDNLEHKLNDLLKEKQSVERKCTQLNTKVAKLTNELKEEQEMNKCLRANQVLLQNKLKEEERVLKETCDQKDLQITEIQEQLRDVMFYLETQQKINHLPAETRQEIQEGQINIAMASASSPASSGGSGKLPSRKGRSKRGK
UniProt Q9P246, whole entry: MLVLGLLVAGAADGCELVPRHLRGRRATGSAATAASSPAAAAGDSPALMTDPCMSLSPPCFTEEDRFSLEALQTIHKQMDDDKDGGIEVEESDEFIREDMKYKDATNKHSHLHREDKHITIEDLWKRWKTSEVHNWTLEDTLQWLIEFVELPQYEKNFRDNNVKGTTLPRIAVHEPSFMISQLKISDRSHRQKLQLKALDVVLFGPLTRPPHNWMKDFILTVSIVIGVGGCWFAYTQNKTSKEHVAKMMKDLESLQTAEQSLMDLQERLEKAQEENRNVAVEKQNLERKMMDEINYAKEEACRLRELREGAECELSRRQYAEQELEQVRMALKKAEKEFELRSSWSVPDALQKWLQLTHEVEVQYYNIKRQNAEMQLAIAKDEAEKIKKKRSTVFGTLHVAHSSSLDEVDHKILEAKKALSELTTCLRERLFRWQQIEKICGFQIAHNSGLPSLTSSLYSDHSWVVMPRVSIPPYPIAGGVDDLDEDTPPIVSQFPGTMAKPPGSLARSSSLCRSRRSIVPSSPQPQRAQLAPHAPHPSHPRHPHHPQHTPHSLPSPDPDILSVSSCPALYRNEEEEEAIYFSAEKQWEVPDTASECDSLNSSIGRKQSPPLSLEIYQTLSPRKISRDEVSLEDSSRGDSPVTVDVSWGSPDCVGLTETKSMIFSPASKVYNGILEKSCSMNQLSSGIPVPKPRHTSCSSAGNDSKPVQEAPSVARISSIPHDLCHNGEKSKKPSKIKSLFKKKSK
UniProt P11940, whole entry: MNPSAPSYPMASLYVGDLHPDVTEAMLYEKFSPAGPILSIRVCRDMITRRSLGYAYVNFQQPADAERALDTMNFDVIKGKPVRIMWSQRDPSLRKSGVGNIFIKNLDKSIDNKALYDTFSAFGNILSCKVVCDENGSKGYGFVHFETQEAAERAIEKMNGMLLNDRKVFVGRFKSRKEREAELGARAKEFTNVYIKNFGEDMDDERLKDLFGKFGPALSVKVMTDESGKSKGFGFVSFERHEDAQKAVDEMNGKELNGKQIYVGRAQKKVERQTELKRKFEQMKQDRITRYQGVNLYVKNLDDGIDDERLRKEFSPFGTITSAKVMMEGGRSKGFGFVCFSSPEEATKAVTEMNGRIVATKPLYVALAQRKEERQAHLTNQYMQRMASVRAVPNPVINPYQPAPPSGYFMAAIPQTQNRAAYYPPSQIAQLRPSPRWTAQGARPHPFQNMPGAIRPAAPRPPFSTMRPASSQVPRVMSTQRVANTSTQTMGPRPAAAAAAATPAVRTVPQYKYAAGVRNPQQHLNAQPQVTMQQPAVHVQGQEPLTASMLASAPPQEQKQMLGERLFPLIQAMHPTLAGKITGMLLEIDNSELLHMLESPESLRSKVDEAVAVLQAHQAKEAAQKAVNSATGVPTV
UniProt P15735: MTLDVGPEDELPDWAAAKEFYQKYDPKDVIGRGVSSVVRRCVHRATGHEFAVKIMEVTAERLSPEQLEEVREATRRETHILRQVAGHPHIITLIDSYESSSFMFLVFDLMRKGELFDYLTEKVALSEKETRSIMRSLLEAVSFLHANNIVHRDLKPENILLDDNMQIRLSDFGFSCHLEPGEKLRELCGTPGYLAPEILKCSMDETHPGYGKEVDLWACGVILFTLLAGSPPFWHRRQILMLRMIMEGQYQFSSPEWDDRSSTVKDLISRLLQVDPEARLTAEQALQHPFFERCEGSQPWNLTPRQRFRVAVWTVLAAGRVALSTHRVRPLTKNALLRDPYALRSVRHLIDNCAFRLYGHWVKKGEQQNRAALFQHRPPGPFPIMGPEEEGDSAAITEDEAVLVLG
UniProt Q9Y5A7: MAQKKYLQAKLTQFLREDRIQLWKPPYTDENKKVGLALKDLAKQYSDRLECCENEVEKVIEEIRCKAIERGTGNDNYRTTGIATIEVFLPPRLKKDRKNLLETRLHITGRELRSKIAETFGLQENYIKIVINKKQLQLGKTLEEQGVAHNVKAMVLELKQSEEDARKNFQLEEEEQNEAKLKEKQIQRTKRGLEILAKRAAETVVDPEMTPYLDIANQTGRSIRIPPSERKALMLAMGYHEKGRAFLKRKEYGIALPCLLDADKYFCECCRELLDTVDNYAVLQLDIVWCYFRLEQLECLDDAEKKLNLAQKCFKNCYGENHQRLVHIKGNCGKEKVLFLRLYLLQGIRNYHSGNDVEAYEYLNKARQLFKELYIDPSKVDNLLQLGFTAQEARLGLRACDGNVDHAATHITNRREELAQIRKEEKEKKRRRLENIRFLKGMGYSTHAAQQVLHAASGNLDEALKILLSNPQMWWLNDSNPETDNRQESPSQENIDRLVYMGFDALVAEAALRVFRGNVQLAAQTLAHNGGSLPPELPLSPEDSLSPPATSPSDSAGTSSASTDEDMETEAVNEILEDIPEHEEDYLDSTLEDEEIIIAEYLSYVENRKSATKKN
UniProt P49642: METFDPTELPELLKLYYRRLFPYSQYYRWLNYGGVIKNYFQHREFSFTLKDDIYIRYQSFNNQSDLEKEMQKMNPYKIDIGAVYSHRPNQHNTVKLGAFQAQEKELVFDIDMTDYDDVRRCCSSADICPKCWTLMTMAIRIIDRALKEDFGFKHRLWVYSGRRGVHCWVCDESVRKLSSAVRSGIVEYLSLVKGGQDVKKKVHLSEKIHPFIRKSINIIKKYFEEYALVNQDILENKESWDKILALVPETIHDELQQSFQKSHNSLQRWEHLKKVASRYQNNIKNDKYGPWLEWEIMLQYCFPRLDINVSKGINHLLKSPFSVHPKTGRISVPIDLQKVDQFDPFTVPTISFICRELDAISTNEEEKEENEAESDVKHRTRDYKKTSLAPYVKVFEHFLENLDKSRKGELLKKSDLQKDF
UniProt Q9H9Q2: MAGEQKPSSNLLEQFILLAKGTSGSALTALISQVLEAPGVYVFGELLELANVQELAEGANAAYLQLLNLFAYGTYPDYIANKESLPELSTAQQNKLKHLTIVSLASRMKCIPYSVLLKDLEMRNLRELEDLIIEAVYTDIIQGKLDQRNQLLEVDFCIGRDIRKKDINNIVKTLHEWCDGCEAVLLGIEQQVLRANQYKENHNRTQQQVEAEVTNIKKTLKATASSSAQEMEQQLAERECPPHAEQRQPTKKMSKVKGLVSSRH
UniProt O60232: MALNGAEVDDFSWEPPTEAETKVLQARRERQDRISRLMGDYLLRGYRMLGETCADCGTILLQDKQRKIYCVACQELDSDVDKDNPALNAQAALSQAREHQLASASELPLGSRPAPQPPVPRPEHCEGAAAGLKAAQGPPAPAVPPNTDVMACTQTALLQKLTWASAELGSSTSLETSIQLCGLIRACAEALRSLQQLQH
UniProt Q06136: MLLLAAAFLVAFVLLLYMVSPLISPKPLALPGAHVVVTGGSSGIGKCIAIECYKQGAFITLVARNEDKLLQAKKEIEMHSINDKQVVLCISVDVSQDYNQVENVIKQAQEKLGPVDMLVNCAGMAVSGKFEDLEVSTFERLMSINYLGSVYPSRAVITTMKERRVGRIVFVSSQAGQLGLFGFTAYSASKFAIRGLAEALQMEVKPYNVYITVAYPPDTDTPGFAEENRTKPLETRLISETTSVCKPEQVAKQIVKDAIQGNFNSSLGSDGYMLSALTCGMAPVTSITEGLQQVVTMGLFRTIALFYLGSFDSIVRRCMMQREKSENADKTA
UniProt P30154, whole entry: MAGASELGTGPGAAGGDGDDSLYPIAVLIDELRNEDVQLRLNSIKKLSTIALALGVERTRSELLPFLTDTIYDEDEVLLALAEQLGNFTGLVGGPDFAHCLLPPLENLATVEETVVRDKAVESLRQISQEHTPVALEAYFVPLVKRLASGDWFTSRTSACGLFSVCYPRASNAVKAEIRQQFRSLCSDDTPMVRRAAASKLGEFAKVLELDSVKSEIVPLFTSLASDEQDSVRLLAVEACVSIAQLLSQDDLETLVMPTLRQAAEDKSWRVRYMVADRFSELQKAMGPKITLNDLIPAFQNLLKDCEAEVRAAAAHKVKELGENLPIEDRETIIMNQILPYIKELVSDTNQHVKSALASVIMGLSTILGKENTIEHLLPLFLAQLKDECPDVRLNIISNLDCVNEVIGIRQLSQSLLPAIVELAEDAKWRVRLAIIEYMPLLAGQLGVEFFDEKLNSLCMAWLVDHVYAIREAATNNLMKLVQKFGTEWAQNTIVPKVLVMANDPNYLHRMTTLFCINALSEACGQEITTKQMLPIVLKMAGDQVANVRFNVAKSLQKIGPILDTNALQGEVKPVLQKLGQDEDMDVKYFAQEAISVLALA

± gives the standard deviation of the averaged measurements. The list shows a part of the results.

For the target “J9JIE6 and related entries (UniProt Q9UM00)”, the NP40-soluble protein abundance was found to be 0.961 ± 0.022 (concentration: 0.1mM); 0.951 ± 0.066 (concentration: 0.5mM); 0.998 ± 0.058 (concentration: 1mM); 0.985 ± 0.077 (concentration: 2mM); 1.03 ± 0.04 (concentration: 4mM); 0.999 ± 0.07 (concentration: 6mM). Moreover, the NP40-soluble protein abundance by setting is: (concentration: 8mM) 1.04 ± 0.023; (concentration: 10mM) 1.08 ± 0.061.

Turning to “J3QRD1 and related entries (UniProt P51648)”, the NP40-soluble protein abundance is, setting by setting: (concentration: 0.1mM) 1.04 ± 0.02; (concentration: 0.5mM) 1.09 ± 0.071; (concentration: 1mM) 0.941 ± 0.065; (concentration: 2mM) 1.02 ± 0.085; (concentration: 4mM) 0.937 ± 0.069; (concentration: 6mM) 0.964 ± 0.058. Further, the NP40-soluble protein abundance by setting is: (concentration: 8mM) 0.896 ± 0.041; (concentration: 10mM) 0.898 ± 0.058.

For the target “K7ESL1 and related entries (UniProt P83876)”, the NP40-soluble protein abundance runs as follows: (concentration: 0.1mM) 1.02 ± 0.017; (concentration: 0.5mM) 1.07 ± 0.033; (concentration: 1mM) 1.04 ± 0.024; (concentration: 2mM) 1.01 ± 0.085; (concentration: 4mM) 1.04 ± 0.074; (concentration: 6mM) 1.07 ± 0.033. For the same target, the NP40-soluble protein abundance turned out to be 1.11 ± 0.088 (concentration: 8mM) and 1.09 ± 0.17 (concentration: 10mM).

Consider “J3KNN5 and related entries (UniProt Q9UJV9)”, for which the NP40-soluble protein abundance runs as follows: (concentration: 0.1mM) 1.08 ± 0.029; (concentration: 0.5mM) 1.28 ± 0.14; (concentration: 1mM) 1.25 ± 0.14; (concentration: 2mM) 1.28 ± 0.13; (concentration: 4mM) 1.28 ± 0.14; (concentration: 6mM) 1.37 ± 0.16. Besides, the NP40-soluble protein abundance amounted to 1.39 ± 0.15 (concentration: 8mM) and 1.48 ± 0.21 (concentration: 10mM).

On to “J3KQ48 and related entries (UniProt Q9Y3E5)”, for which the NP40-soluble protein abundance by setting is: (concentration: 0.1mM) 0.982 ± 0.082; (concentration: 0.5mM) 0.957 ± 0.059; (concentration: 1mM) 0.947 ± 0.085; (concentration: 2mM) 0.941 ± 0.049; (concentration: 4mM) 0.991 ± 0.12; (concentration: 6mM) 0.915 ± 0.075. Moreover, the NP40-soluble protein abundance (concentration: 8mM) was 0.908 ± 0.07 and the NP40-soluble protein abundance (concentration: 10mM) stood at 0.966 ± 0.12.

In the case of “J3KNN7 and related entries (UniProt Q7Z569)”, the NP40-soluble protein abundance (concentration: 0.1mM) was found to be 1.12 ± 0.03; the NP40-soluble protein abundance (concentration: 0.5mM) worked out at 1.11 ± 0.12; the NP40-soluble protein abundance (concentration: 1mM) was 1.15 ± 0.057; the NP40-soluble protein abundance (concentration: 2mM) was found to be 1.12 ± 0.1; the NP40-soluble protein abundance (concentration: 4mM) was 1.15 ± 0.18; the NP40-soluble protein abundance (concentration: 6mM) came to 1.13 ± 0.067. Further, the NP40-soluble protein abundance (concentration: 8mM) was 1.14 ± 0.076 and the NP40-soluble protein abundance (concentration: 10mM) stood at 1.12 ± 0.11.

On to “H0Y860 and related entries (UniProt Q9P246)”, for which the NP40-soluble protein abundance (concentration: 0.1mM) was 0.977 ± 0.021; the NP40-soluble protein abundance (concentration: 0.5mM) turned out to be 0.952 ± 0.015; the NP40-soluble protein abundance (concentration: 1mM) came out at 1.06 ± 0.096; the NP40-soluble protein abundance (concentration: 2mM) was determined as 1.06 ± 0.06; the NP40-soluble protein abundance (concentration: 4mM) is 1.13 ± 0.26; the NP40-soluble protein abundance (concentration: 6mM) amounted to 1.034 ± 0.0099. In addition, the NP40-soluble protein abundance worked out at 1.12 ± 0.12 (concentration: 8mM) and 0.958 ± 0.07 (concentration: 10mM).

For “H7BZJ3 and related entries (UniProt P30101)”, the NP40-soluble protein abundance was determined as 0.921 ± 0.064 (concentration: 0.1mM); 0.949 ± 0.053 (concentration: 0.5mM); 0.927 ± 0.068 (concentration: 1mM); 0.882 ± 0.071 (concentration: 2mM); 0.864 ± 0.072 (concentration: 4mM); 0.877 ± 0.067 (concentration: 6mM). Further, the NP40-soluble protein abundance was 0.872 ± 0.061 (concentration: 8mM) and 0.869 ± 0.065 (concentration: 10mM).

Consider “H0YAR2 and related entries (UniProt P11940)”, for which the NP40-soluble protein abundance reads like this: (concentration: 0.1mM) 0.985 ± 0.065; (concentration: 0.5mM) 0.993 ± 0.061; (concentration: 1mM) 1.01 ± 0.071; (concentration: 2mM) 0.967 ± 0.07; (concentration: 4mM) 1.02 ± 0.058; (concentration: 6mM) 1.03 ± 0.066. Besides, the NP40-soluble protein abundance by setting is: (concentration: 8mM) 1.07 ± 0.036; (concentration: 10mM) 1.03 ± 0.039.

In the case of “J3KNN3 and related entries (UniProt P15735)”, the NP40-soluble protein abundance runs as follows: (concentration: 0.1mM) 1.24 ± 0.25; (concentration: 0.5mM) 1.2 ± 0.21; (concentration: 1mM) 1.13 ± 0.15; (concentration: 2mM) 1.2 ± 0.2; (concentration: 4mM) 1.22 ± 0.2; (concentration: 6mM) 1.16 ± 0.18. In addition, the NP40-soluble protein abundance stood at 1.13 ± 0.21 (concentration: 8mM) and 1.11 ± 0.21 (concentration: 10mM).

“H3BM14 and related entries (UniProt Q9Y5A7)”: the NP40-soluble protein abundance stood at 1.02 ± 0.03 (concentration: 0.1mM); 1.01 ± 0.03 (concentration: 0.5mM); 0.986 ± 0.027 (concentration: 1mM); 0.96 ± 0.032 (concentration: 2mM); 0.971 ± 0.074 (concentration: 4mM); 0.965 ± 0.057 (concentration: 6mM). The NP40-soluble protein abundance is, setting by setting: (concentration: 8mM) 0.95 ± 0.067; (concentration: 10mM) 0.938 ± 0.063.

As to “J3KMZ7 and related entries (UniProt Q9H0H0)”, the NP40-soluble protein abundance reads like this: (concentration: 0.1mM) 1.04 ± 0.13; (concentration: 0.5mM) 1.08 ± 0.19; (concentration: 1mM) 1.13 ± 0.23; (concentration: 2mM) 1.14 ± 0.24; (concentration: 4mM) 1.18 ± 0.31; (concentration: 6mM) 1.16 ± 0.33. The NP40-soluble protein abundance came to 0.999 ± 0.3 (concentration: 8mM) and 1.19 ± 0.35 (concentration: 10mM).

Consider “H0YIP2 and related entries (UniProt P49642)”, for which the NP40-soluble protein abundance was found to be 0.99 ± 0.044 (concentration: 0.1mM); 0.991 ± 0.014 (concentration: 0.5mM); 0.9615 ± 0.0063 (concentration: 1mM); 0.954 ± 0.032 (concentration: 2mM); 0.954 ± 0.026 (concentration: 4mM); 0.976 ± 0.027 (concentration: 6mM). Besides, the NP40-soluble protein abundance runs as follows: (concentration: 8mM) 0.9486 ± 0.0078; (concentration: 10mM) 0.927 ± 0.045.

Consider “J3KQ34 and related entries (UniProt Q9H9Q2)”, for which the NP40-soluble protein abundance by setting is: (concentration: 0.1mM) 0.873 ± 0.1; (concentration: 0.5mM) 0.813 ± 0.05; (concentration: 1mM) 1.05 ± 0.17; (concentration: 2mM) 1.1 ± 0.11; (concentration: 4mM) 1.09 ± 0.16; (concentration: 6mM) 1.05 ± 0.094. Further, the NP40-soluble protein abundance (concentration: 8mM) turned out to be 0.943 ± 0.12 and the NP40-soluble protein abundance (concentration: 10mM) was 1.17 ± 0.25.

Consider “H0YEB6 and related entries (UniProt O60232)”, for which the NP40-soluble protein abundance is, setting by setting: (concentration: 0.1mM) 1.13 ± 0.12; (concentration: 0.5mM) 1.07 ± 0.063; (concentration: 1mM) 1.06 ± 0.082; (concentration: 2mM) 1.06 ± 0.11; (concentration: 4mM) 1.12 ± 0.1; (concentration: 6mM) 1.05 ± 0.08. For the same target, the NP40-soluble protein abundance is, setting by setting: (concentration: 8mM) 1.18 ± 0.13; (concentration: 10mM) 1.14 ± 0.17.

As to “K7ERC8 and related entries (UniProt Q06136)”, the NP40-soluble protein abundance (concentration: 0.1mM) was 0.834 ± 0.1; the NP40-soluble protein abundance (concentration: 0.5mM) amounted to 0.877 ± 0.079; the NP40-soluble protein abundance (concentration: 1mM) stood at 0.912 ± 0.1; the NP40-soluble protein abundance (concentration: 2mM) amounted to 0.943 ± 0.14; the NP40-soluble protein abundance (concentration: 4mM) was 0.982 ± 0.11; the NP40-soluble protein abundance (concentration: 6mM) is 0.868 ± 0.041. In addition, the NP40-soluble protein abundance (concentration: 8mM) worked out at 0.89 ± 0.11 and the NP40-soluble protein abundance (concentration: 10mM) came to 0.958 ± 0.14.

On to “H0YDG7 and related entries (UniProt P30154)”, for which the NP40-soluble protein abundance reads like this: (concentration: 0.1mM) 1.02 ± 0.056; (concentration: 0.5mM) 0.998 ± 0.018; (concentration: 1mM) 1.01 ± 0.041; (concentration: 2mM) 0.972 ± 0.034; (concentration: 4mM) 0.991 ± 0.065; (concentration: 6mM) 0.942 ± 0.034. Also, the NP40-soluble protein abundance reads like this: (concentration: 8mM) 0.953 ± 0.085; (concentration: 10mM) 0.946 ± 0.031.

(Values after the supplement of paper PMC6411743.)
